Experimental data from paper PMC10204066.
Results are given in words; binding and its absence hold for the method and conditions named. Tags and fused reporters may be left off the sequences shown.

How the values were obtained:
[1] = target: SolG (nonribosomal peptide synthetase, module 5 of the solanimycin cluster) (Dickeya solani MK10); experiment: AUC; analytical ultracentrifugation of SolG expressed in E. coli; both purified
[2] = target: SolG (nonribosomal peptide synthetase, module 5 of the solanimycin cluster) (Dickeya solani MK10); experiment: native MS; non-denaturing mass spectrometry of SolG expressed in E. coli; both purified
[3] = target: SolG (nonribosomal peptide synthetase, module 5 of the solanimycin cluster) (Dickeya solani MK10); experiment: native gel or EMSA; blue native PAGE of SolG expressed in E. coli

binding [1]: no binding | binding [2]: no binding | binding [3]: no binding
B1: SolG (nonribosomal peptide synthetase, module 5 of the solanimycin cluster) (enzyme, UniProt A0ABU4EJF4 1-1163)
chain: MSDFEQLLLTLEEAKISISLDNDDLVITSAKGALTSEIKSALREHKMTMVHALRNGKRLSNAFEVVVPANKITPETTAITPELLPLIDFTQKDIDHVVEQVSGGVSNIQDIYSLAPLQEGILFHHMLASKGDPYLQTGQMTFDSREKVDNYLAAVQQVIDRHDIMRTGFYWEGVSTPCQVVQRQATLHVLEVDLDPANGPIAKQLSERFDPSHYSIDLAKPPLLHAFVAYDKRSDRWEMFRVLHHLIDDITSVLILSAEIHTFLAGRGHTLPAAQPFRRLIAQVRLGKSPEEHERYFRATLADIDEPTAPYGLVNMLDDFDIIEVTRKVPQRLNDALRAHARRLGVSLGSICHLAWGQVLACISGQDSVVFGTILFGRMHAGDGADQIMGPFINTLPLRLDMHGASVQESVRTTHKRLAELLSHEHASLALALRCSGISGSTPLFNTLFNYRHNRESESKSLDFVVPEADQWDGFEERTTYPITLSVDDYGNALGLNIQVVDSLDPELLFAYTQQALENIAGALDSAPNTPMQQIAILPAAERHLLLNEWNNTGKVYPDVAYTHQMFEAQVKLTPSATALRFGDRELSYAELNALSNQLAHHLRQQGVKPDDRVAICLDRSIEMVVGLMGIIKAGGAYVPLDPDYPQERLSYILQDSAPTLLLLDQRGREVTAELDTTGIAAFELDVASLARSSLSTESLSPAELGLTSRHLAYVIYTSGSTGKPKGVENEHRGLINRLQWMQDAYQLDSSDAVLQKTTFSFDVSVWEFFWPLSVGATLVVAPPGAHKDTQALAQVIQSNNITTIHFVPSMLNLFLANDSVAACRSLRRIVCSGEALSSASVVRCHKLLPDTAVHNLYGPTEAAIDVTSWTCPKDLPESATVPIGRPIANLRIYLLDQHLRPVPRGVVGELYIGGVGVARGYLNRPDLTAERFVNDPFVSDADARMYRTGDVARYLADGDIDYLGRNDNQVKIRGFRIELGEIDAELLKQPTVREAVVVARGDVQGDLRLVAYVVLSAEAETEGLGLSEHIAQWRSSLAAQLPEYMVPAAFVKLDQLPLTANGKLDRKALPLPDDSSFSRSAYEAPQGDVEIAMAELWQELLGVERIGRHDNFFELGGHSLLAVQLMEHLRQRDLSTEIRALFDSPTLAELSARTIELDEMRL
